# Experimental data reported in EP0497988A1, “ANTIVIRAL AGENT” (DAINIPPON INK AND CHEMICALS, INC., priority 1990, dated 1992).
# The name of at least one read-out is uncertain.
# System: MT-4 Cell
# Assay: Cell toxicity to mock-infected MT-4 cells by MTT method
# Assay type: cell-based
# Conditions: 5 days
# Method: Test Method: MMT (the tetrazolium assay) method Cell: MT-4 Cell Virus: HTLV-IIIB (Infection : 3 x 10⁵ plaque forming units (PFU)/ml) MT-4 cells were suspended in a culture medium at 2 x 10⁵ cells/ml and infected with HIV-IIIB at a multiplicity of infection of 0.01. Immediately after infection, 100µl of cell suspension was placed into microtiter tray wells containing various concentrations of the test samples. At the same time, the mock-infected cells were also cultured together with the samples in order to assess the cell toxicity of the test samples to the MT-4 cell. They were cultured in a CO₂-gas incubator at 37°C for 5 days, and the number of viable cells were determined by the MTT method. Antiviral activity is expressed by EC₅₀ (50% effective concentration), the concentration at which the agent protects 50% of the cells from injury by HIV infection, and cell toxicity by CC₅₀ (50% cell toxicity concentration), the concentration at which 50% of the cells are injured by the agent. Selectivity is measured by a selectivity index (S.I), which is expressed by CC₅₀/EC₅₀ (R. Pauwels, et al., J. of […], vol. 20, 1988, pp. 309-321).
substance,measurement,value
sodium salt of n-hexadecyl β-laminaripentaoside sulfate [LPS-2],CC₅₀,= 471 µg/ml
sodium salt of n-decyl β-laminaripentaoside sulfate [LPS-3],CC₅₀,> 1000 µg/mL
